These results are taken from paper PMC6441012.

Results are given in words; binding and its absence hold for the method and conditions named. In cells and extracts the contact can be indirect. Where a sequence is shown, tags or fusion partners need not be part of it.

This test concerns the target T1, Cox8-His (S. cerevisiae (endogenous in GA74-1A)) (UniProt P04039).
T1 sequence: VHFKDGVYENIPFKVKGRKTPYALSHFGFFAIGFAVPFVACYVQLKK
Nature of the test: pull-down; Ni-NTA agarose affinity purification of Cox8-His from 2% (w/v) SMA extracts of osmotically ruptured mitochondria (20 mM HEPES-KOH pH 8.0, 200 mM NaCl, 4 °C), washed with 10 and 20 mM imidazole, eluted with 60 mM imidazole; eluates (SMA nanodiscs) immunoblotted; Cox8-His in WT, psd1Δ, psd2Δ, psd1Δpsd2Δ, IM-Psd1, OM-Psd1 and ER-Psd1 strains. A general note: A western blot detects proteins with antibodies after separation by electrophoresis.

B1: Tom70 (protein, UniProt P07213 1-617)
chain: MKSFITRNKTAILATVAATGTAIGAYYYYNQLQQQQQRGKKNTINKDEKKDTKDSQKETEGAKKSTAPSNPPIYPVSSNGEPDFSNKANFTAEEKDKYALALKDKGNQFFRNKKYDDAIKYYNWALELKEDPVFYSNLSACYVSVGDLKKVVEMSTKALELKPDYSKVLLRRASANEGLGKFADAMFDLSVLSLNGDFNDASIEPMLERNLNKQAMSKLKEKFGDIDTATATPTELSTQPAKERKDKQENLPSVTSMASFFGIFKPELTFANYDESNEADKELMNGLSNLYKRSPESYDKADESFTKAARLFEEQLDKNNEDEKLKEKLAISLEHTGIFKFLKNDPLGAHEDIKKAIELFPRVNSYIYMALIMADRNDSTEYYNYFDKALKLDSNNSSVYYHRGQMNFILQNYDQAGKDFDKAKELDPENIFPYIQLACLAYRENKFDDCETLFSEAKRKFPEAPEVPNFFAEILTDKNDFDKALKQYDLAIELENKLDGIYVGIAPLVGKATLLTRNPTVENFIEATNLLEKASKLDPRSEQAKIGLAQMKLQQEDIDEAITLFEESADLARTMEEKLQAITFAEAAKVQQRIRSDPVLAKKIQETLAKLREQGLM
Take B1: the binding result is reported as “no binding”.

B2: OM45 (protein, UniProt P16547 1-393)
chain: MSSRIIVGSAALAAAITASIMVREQKAKGQRREGNVSAYYNGQEYGSSAPPQLGKLHNIKQGIKEDALSLKDALLGVSQKAREEAPKVTKRVISPEEDAQTRKQLGQKAKDSSSQSIFNWGFSEAERRKAIAIGEFDTAKKRFEEAVDRNEKELLSTVMREKKAALDRASIEYERYGRARDFNELSDKLDQQERNSNPLKRLLKNNTGDANTEEAAARSVQGWGDTAQEFGREELEEAKRNASSEPSEAQKRLDELKKIKEKGWFGYNKGEQSEQQIAERVARGLEGWGETAAQLSKDEMDDLRWNYENSKKQLDKNVSDAMDSLSKAKEDLKQYGSHWWSGWTSKVDNDKQALKDEAQKKYDEALKKYDEAKNKFKEWNDKGDGKFWSSKKD
As for B2, the binding result is recorded as “no binding”.
